According to patent US20050165089A1, “Compounds, compositions and methods” (priority 2003, published 2005):
Some entries share one result that the patent states for a list of compounds. At least one structure is not confirmed: it was looked up by name or label, or the drawing left a doubt.

Tested on: human ovarian tumor cell lines (SKOV-3)
Assay: Inhibition of cellular proliferation in tumor cell lines (MTS, 48 hours, GI50)
Format: cell-based

SMILES	inhibition of cell proliferation
Cc1ccc(C(=O)N(CCCN)C(c2oc3nc(Cl)ccc3c(=O)c2Cc2ccccc2)C(C)C)cc1 (centres unmarked) [Example 1, N-(3-aminopropyl)-N-{1-[7-chloro-4-oxo-3-(phenylmethyl)-4H-pyrano[2,3-b]pyridin-2-yl]-2-methylpropyl}-4-methylbenzamide]	inhibited cell proliferation
COc1cccc(Cc2c(C(C(C)C)N3CCN=C3c3ccc4c(c3)OCO4)oc3nc(Cl)ccc3c2=O)c1 (centres unmarked) [Example 2, 2-{1-[2-(1,3-benzodioxol-5-yl)-4,5-dihydro-1H-imidazol-1-yl]-2-methylpropyl}-7-chloro-3-{[3-(methyloxy)phenyl]methyl}-4H-pyrano[2,3-b]pyridin-4-one]	inhibited cell proliferation
